PubChem BioAssay AID258 (DTP/NCI, 2004)
The list does not hold the whole screen: it gathers tests that were run many times, whatever their T/C, doses with no T/C, and many T/C values between a quarter and a half above the control. Other doses and runs of a compound stand elsewhere. T/C is the treated group as % of the vehicle group. Some entries give survivors of the animals treated and no T/C: the source files T/C as zero there, which appears to mark a toxic dose or a test without result, not a measured value. Some survivor counts are full or nearly so, which does not show that the dose was tolerated: the source hardly ever lists a survival T/C far under the control, and the zero likely stands for such cases as well. Survivors were counted at the toxicity check, usually on the fifth day, unless a day is given; later deaths do not show. Schedule codes are those of the source, read here as Q, the interval in days (D) or hours (H), X, the number of doses. Some molecules as drawn cover several salts, stereoisomers or complexes of the source; a dose is that of the sample tested. Some schedule codes hold Z or #, which are not explained here. Where survival is the endpoint, the PubChem record calls one and a half times the control and up active, and a quarter to a half above the control has no call in these data; cut-offs in other NCI protocols can differ. Some entries hold several experiments; their values stand side by side, smallest first. Additions like (4×) give the number of equal values in this list. Some T/C values carry the count of animals alive at the toxicity check (mostly the fifth day); without a count, all were alive then.

System: CD2F1 mice, L1210 leukemia sc, survival T/C
Experiment: NCI In Vivo Anticancer Drug Screen. Data for tumor model L1210 Leukemia (subcutaneous) in CD2F1 (CDF1) mice
Details: T/C endpoint: median survival time, higher T/C = longer survival
Protocol: The antitumor activity of compounds was measured in mice bearing transplantable tumors. Survival or tumor size were measured and the results are expressed as the measurement made in the treated group (T) divided by the measurement made in the vehicle treated control group (C). The tumor model used in this assay is L1210 Leukemia (subcutaneous) in CD2F1 (CDF1) mice

[1] = dose: 0.4 mg/kg/injection, schedule: Q01DX009 (sc), vehicle: saline
[2] = dose: 1.6 mg/kg/injection, schedule: Q01DX009 (sc), vehicle: saline
[3] = dose: 108.0 mg/kg/injection, schedule: Q01DX Z (sc), vehicle: methylcellulose (MC)
[4] = dose: 180.0 mg/kg/injection, schedule: Q01DX Z (sc), vehicle: methylcellulose (MC)
[5] = dose: 300.0 mg/kg/injection, schedule: Q01DX Z (sc), vehicle: methylcellulose (MC)
[6] = dose: 500.0 mg/kg/injection, schedule: Q01DX Z (sc), vehicle: methylcellulose (MC)

## COc1ccc2[nH]c3ccc4cc[n+](CCN5CCC(C6CCN(CC[n+]7ccc8ccc9[nH]c%10ccc(OC)cc%10c9c8c7)CC6)CC5)cc4c3c2c1
dose: 6.25 mg/kg/injection, schedule: Q01DX009 (ip), vehicle: Klucel (hydroxypropylcellulose) (HPC)
  T/C: 144 % of control
dose: 19.2 mg/kg/injection, schedule: Q01DX009 (ip), vehicle: water
  T/C: 125 % of control
dose: 50.0 mg/kg/injection, schedule: Q01DX009 (ip), vehicle: Klucel (hydroxypropylcellulose) (HPC)
  T/C: 126 % of control [5 of 6 alive]
dose: 53.3 mg/kg/injection, schedule: Q01DX009 (ip), vehicle: water
  survivor count: 6 of 6
dose: 100.0 mg/kg/injection, schedule: Q01DX009 (ip), vehicle: Klucel (hydroxypropylcellulose) (HPC)
  survivor count: 0 of 6
dose: 200.0 mg/kg/injection, schedule: Q01DX009 (ip), vehicle: Klucel (hydroxypropylcellulose) (HPC)
  survivor count: 0 of 6

## C[C@]12CC[C@H](OC3OC(CO)C(O)C(O)C3O)C[C@H]1CC[C@@H]1[C@@H]2CC[C@]2(C)[C@@H](C3=CCOC3=O)CC[C@]12O (stereo partly specified)
dose: 1.08 mg/kg/injection, schedule: Q01DX Z (sc), vehicle: saline
  T/C: 135 % of control
dose: 1.8 mg/kg/injection, schedule: Q01DX Z (sc), vehicle: saline
  T/C: 125 % of control

## C1CN1c1nc(N2CC2)nc(N2CC2)n1
dose: 0.1 mg/kg/injection, schedule: Q01DX009 (sc), vehicle: saline
  survivor count: 3 of 10
dose: 0.2 mg/kg/injection, schedule: Q01DX009 (sc), vehicle: saline
  survivor count: 4 of 10
dose: 0.3 mg/kg/injection, schedule: Q01DX009 (ip), vehicle: saline
  T/C: 131 % of control
dose: 0.3 mg/kg/injection, schedule: Q01DX009 (sc), vehicle: saline
  T/C: 139 % of control
dose: 0.4 mg/kg/injection, schedule: Q01DX009 (ip), vehicle: saline
  T/C: 126 % of control
[1]
  T/C: 134 and 149 % of control
  survivor count: 6 of 10
dose: 0.53 mg/kg/injection, schedule: Q01DX009 (sc), vehicle: saline
  T/C: 141 % of control
dose: 0.6 mg/kg/injection, schedule: Q01DX009 (ip), vehicle: saline
  T/C: 143 % of control
dose: 0.6 mg/kg/injection, schedule: Q01DX009 (sc), vehicle: saline
  T/C: 148 % of control
dose: 0.75 mg/kg/injection, schedule: Q01DX009 (ip), vehicle: saline
  T/C: 137 % of control
dose: 0.75 mg/kg/injection, schedule: Q01DX009 (sc), vehicle: saline
  T/C: 143 % of control
dose: 0.8 mg/kg/injection, schedule: Q01DX009 (sc), vehicle: saline
  T/C: 145 % of control
dose: 1.2 mg/kg/injection, schedule: Q01DX009 (sc), vehicle: saline
  T/C: 135 % of control
dose: 1.6 mg/kg/injection, schedule: Q01DX009 (ip), vehicle: saline
  survivor count: 10 of 10
[2]
  T/C: 125 % of control
  survivor count: 10 of 10
dose: 3.2 mg/kg/injection, schedule: Q01DX009 (sc), vehicle: saline
  survivor count: 5 of 10

## OCC1OC(n2cnc3c(=S)nc[nH]c32)C(O)C1O (stereo unspecified)
dose: 46.8 mg/kg/injection, schedule: Q01DX Z (sc), vehicle: other
  survivor count: 6 of 10
dose: 78.0 mg/kg/injection, schedule: Q01DX Z (sc), vehicle: other
  survivor count: 6 of 10

## O=c1[nH]c(=O)n(C2CC(O)C(CO)O2)cc1F (stereo unspecified)
dose: 40.0 mg/kg/injection, schedule: Q01DX009 (ip), vehicle: saline
  T/C: 128 % of control
dose: 40.0 mg/kg/injection, schedule: Q01DX009 (sc), vehicle: saline
  T/C: 134 % of control
dose: 60.0 mg/kg/injection, schedule: Q01DX009 (sc), vehicle: saline
  T/C: 132 % of control
dose: 62.5 mg/kg/injection, schedule: Q01DX006 (ip), vehicle: saline
  T/C: 125 % of control
dose: 62.5 mg/kg/injection, schedule: Q01DX009 (ip), vehicle: saline
  T/C: 125 % of control
dose: 62.5 mg/kg/injection, schedule: Q02DX005 (ip), vehicle: saline
  T/C: 125 % of control
dose: 78.0 mg/kg/injection, schedule: Q01DX Z (sc), vehicle: saline
  T/C: 129 % of control
dose: 80.0 mg/kg/injection, schedule: Q01DX009 (ip), vehicle: saline
  T/C: 130 % of control
dose: 80.0 mg/kg/injection, schedule: Q01DX009 (sc), vehicle: saline, evaluated on day 30
  T/C: 143 % of control
dose: 80.0 mg/kg/injection, schedule: Q01DX009 (sc), vehicle: saline, evaluated on day 45
  T/C: 125 % of control
dose: 125.0 mg/kg/injection, schedule: Q01DX006 (ip), vehicle: saline
  T/C: 137 % of control
dose: 250.0 mg/kg/injection, schedule: Q01DX001 (ip), vehicle: saline
  T/C: 125 % of control
dose: 250.0 mg/kg/injection, schedule: Q04DX003 (ip), vehicle: saline
  T/C: 125 % of control
dose: 500.0 mg/kg/injection, schedule: Q01DX001 (ip), vehicle: saline
  T/C: 137 % of control

## O=P1(N(CCCl)CCCl)NCCCO1 (stereo unspecified)
dose: 25.0 mg/kg/injection, schedule: Q01DX009 (ip), vehicle: saline
  T/C: 138 % of control
dose: 25.0 mg/kg/injection, schedule: Q01DX009 (sc), vehicle: saline
  T/C: 139 % of control
dose: 39.0 mg/kg/injection, schedule: Q## X Z (sc), vehicle: saline
  T/C: 147 % of control
dose: 50.0 mg/kg/injection, schedule: Q01DX001 (ip), vehicle: saline
  T/C: 113, 114, 118, 119, 130 % of control
dose: 65.0 mg/kg/injection, schedule: Q01DX001 (sc), vehicle: saline
  T/C: 147 % of control
dose: 65.0 mg/kg/injection, schedule: Q07DX003 (sc), vehicle: saline, evaluated on day 7
  T/C: 142 % of control
dose: 65.0 mg/kg/injection, schedule: Q07DX003 (sc), vehicle: saline, evaluated on day 38
  T/C: 144 % of control
dose: 65.0 mg/kg/injection, schedule: Q07DX Z (sc), vehicle: saline
  T/C: 147 % of control
dose: 100.0 mg/kg/injection, schedule: Q01DX001 (ip), vehicle: saline
  T/C: 132, 133, 140, 141 % of control (2×)
dose: 200.0 mg/kg/injection, schedule: Q01DX001 (ip), vehicle: saline
  T/C: 186, 226, 300 (2×), 319 % of control
dose: 300.0 mg/kg/injection, schedule: Q## X Z (sc), vehicle: saline
  T/C: 147 % of control
dose: 500.0 mg/kg/injection, schedule: Q01DX001 (sc), vehicle: saline
  survivor count: 5 of 8
dose: 500.0 mg/kg/injection, schedule: Q07DX Z (sc), vehicle: saline
  T/C: 136 % of control [7 of 10 alive]

## Nc1nc(N)c2cc(CCc3ccc(C(=O)NC(CCC(=O)O)C(=O)O)cc3)ccc2n1 (stereo unspecified)
dose: 0.31 mg/kg/injection, schedule: Q01DX009 (ip), vehicle: Klucel (hydroxypropylcellulose) (HPC)
  T/C: 125 % of control
dose: 1.25 mg/kg/injection, schedule: Q01DX009 (ip), vehicle: Klucel (hydroxypropylcellulose) (HPC)
  survivor count: 5 of 6

## C[C@]12CCC(=O)C=C1CC[C@@H]1[C@@H]2C(=O)C[C@@]2(C)[C@H]1CC[C@]2(O)C(=O)CO
[3]
  survivor count: 4 of 10
[4]
  survivor count: 4 of 10
[5]
  survivor count: 4 of 10
[6]
  survivor count: 5 of 10
dose: 833.0 mg/kg/injection, schedule: Q01DX Z (sc), vehicle: methylcellulose (MC)
  survivor count: 4 of 10

## S=c1nc[nH]c2c1ncn2C1CCCC1
dose: 23.0 mg/kg/injection, schedule: Q01DX Z (sc), vehicle: methylcellulose (MC)
  survivor count: 3 of 10
dose: 39.0 mg/kg/injection, schedule: Q01DX Z (sc), vehicle: methylcellulose (MC)
  survivor count: 3 of 10
dose: 65.0 mg/kg/injection, schedule: Q01DX Z (sc), vehicle: methylcellulose (MC)
  survivor count: 5 of 10
[3]
  survivor count: 2 of 10
[4]
  survivor count: 2 of 10
[5]
  survivor count: 3 of 10
[6]
  survivor count: 3 of 10

## O=C(CCBr)N1CCN(C(=O)CCBr)CC1
dose: 130.0 mg/kg/injection, schedule: Q01DX Z (sc), vehicle: methylcellulose (MC)
  T/C: 133 % of control
dose: 216.0 mg/kg/injection, schedule: Q01DX Z (sc), vehicle: methylcellulose (MC)
  T/C: 133 % of control
